# Screening data, single-dose tests

By UniProt entry, the sequences of proteins in these tests, tags left out. Residues count along the entry.
UniProt P9WNZ1, whole entry: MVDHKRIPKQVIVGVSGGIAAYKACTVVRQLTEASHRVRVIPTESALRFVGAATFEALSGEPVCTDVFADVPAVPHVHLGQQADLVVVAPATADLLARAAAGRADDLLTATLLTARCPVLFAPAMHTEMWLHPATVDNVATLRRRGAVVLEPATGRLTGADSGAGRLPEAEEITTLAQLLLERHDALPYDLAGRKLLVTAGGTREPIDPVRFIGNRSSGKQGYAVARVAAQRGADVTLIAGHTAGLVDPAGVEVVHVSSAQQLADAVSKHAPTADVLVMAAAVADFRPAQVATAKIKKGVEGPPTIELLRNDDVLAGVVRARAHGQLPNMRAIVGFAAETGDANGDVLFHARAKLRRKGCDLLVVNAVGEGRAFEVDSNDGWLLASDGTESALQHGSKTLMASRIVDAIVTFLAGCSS
UniProt P9WFT3, whole entry: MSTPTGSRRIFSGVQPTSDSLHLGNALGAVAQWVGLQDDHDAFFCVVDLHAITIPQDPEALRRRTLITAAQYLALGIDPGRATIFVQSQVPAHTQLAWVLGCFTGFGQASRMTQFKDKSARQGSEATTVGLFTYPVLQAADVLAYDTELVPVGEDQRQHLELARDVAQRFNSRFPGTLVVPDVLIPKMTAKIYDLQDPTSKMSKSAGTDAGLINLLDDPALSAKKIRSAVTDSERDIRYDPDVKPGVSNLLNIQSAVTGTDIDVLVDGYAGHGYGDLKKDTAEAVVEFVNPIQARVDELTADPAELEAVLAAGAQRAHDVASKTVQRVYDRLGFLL
UniProt Q4DA54, 1-478: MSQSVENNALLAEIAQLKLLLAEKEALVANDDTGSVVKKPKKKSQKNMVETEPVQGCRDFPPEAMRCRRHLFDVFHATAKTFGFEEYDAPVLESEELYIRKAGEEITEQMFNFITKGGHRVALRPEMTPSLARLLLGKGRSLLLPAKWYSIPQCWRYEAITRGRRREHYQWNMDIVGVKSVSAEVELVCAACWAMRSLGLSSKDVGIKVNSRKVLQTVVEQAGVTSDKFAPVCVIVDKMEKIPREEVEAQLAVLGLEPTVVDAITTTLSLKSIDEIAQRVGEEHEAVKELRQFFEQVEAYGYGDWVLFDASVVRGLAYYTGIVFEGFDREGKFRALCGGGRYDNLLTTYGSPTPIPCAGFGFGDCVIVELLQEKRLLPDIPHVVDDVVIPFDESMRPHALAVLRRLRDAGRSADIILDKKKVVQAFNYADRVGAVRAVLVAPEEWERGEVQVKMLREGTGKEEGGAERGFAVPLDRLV
UniProt Q8IDJ8, 1-583: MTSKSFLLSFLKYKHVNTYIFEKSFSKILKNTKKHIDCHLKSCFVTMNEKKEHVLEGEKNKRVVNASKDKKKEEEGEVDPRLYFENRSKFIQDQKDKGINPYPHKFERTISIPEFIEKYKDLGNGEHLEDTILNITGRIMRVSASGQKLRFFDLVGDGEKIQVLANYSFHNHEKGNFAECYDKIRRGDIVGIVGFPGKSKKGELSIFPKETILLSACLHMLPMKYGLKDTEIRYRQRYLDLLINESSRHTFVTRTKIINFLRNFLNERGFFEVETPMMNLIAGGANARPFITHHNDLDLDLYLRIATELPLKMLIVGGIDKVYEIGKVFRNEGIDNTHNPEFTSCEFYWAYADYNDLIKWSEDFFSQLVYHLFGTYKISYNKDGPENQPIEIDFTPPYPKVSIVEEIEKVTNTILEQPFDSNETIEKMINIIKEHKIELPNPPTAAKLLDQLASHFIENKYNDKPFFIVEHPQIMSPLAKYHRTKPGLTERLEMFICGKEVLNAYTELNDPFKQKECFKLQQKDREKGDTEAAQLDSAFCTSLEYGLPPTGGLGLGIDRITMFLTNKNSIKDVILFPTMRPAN

A: 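Coenzyme A biosynthesis protein CoaBC, Mycobacterium tuberculosis (UniProt P9WNZ1). Enzyme assay of CoaBC with a phosphate dye (Biomol Green) read at 650 nm. Compounds at 30 µM. Higher reads as stronger inhibition, judged from the few compounds that gave an IC50. Most strong results did not repeat in a second test. About 67,000 compounds were tested under these conditions; 0.06% (about 40) showed 50% or more at least once.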
B: 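Enzyme assay of tryptophanyl-tRNA synthetase; the read-out is not stated. Target: Tryptophan-tRNA ligase, Mycobacterium tuberculosis (UniProt P9WFT3). Concentration: 10 µM. Direction is not recorded; retested compounds ran higher, which suggests that high means inhibition. Size under these conditions: about 65,000 compounds, about 64 of them at 50% or above in at least one test.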
C: 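Histidine-tRNA ligase, Trypanosoma cruzi CL Brener (UniProt Q4DA54). Enzyme assay of histidyl-tRNA synthetase; the read-out is not stated. Tested at 30 µM. The record gives no direction; compounds that gave an IC50 in retests scored well above the rest, so higher reads as stronger inhibition. About 69,000 compounds were tested under these conditions; 0.045% (about 31) showed 50% or more at least once.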
D: 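Lysine-tRNA ligase, Plasmodium falciparum 3D7 (UniProt Q8IDJ8). Enzyme assay of the cytosolic lysyl-tRNA synthetase in 384-well plates, read by luminescence. Concentration: 30 µM. Higher reads as stronger inhibition, judged from the few compounds that gave an IC50. Size under these conditions: about 69,000 compounds, about 49 of them at 50% or above in at least one test.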

Values are the deposited “Percent Effect”, in %. The controls that fix the scale are not given in the record; negative values are as filed. The compounds are a random part of those screened.

structure: COc1ccc2c(c1)NC(=O)C2OC(=O)CC(C)(C)C (stereo not shown)
A: -11.28
B: 3.229
C: 15
D: 7.007

structure: CS(=O)(=O)C1CCN(S(=O)(=O)c2ccc(F)c(F)c2)C1 (stereo not shown)
A: 1.564
B: 3.962
C: 5.528
D: 6.315

structure: Cc1n[nH]cc1CNC(C(=O)N1CCCCC1)c1ccccc1 (stereo not shown)
A: -4.065
B: -2.933
C: 9.804
D: 3.269

structure: O=c1c2sccc2nc2n1CCN(Cc1ccsc1)CC2
A: -1.611
C: 0.7491
D: 0.2814

structure: Cn1ccnc1CNC(=O)N1CCCC(Cc2nccn2C)C1 (stereo not shown)
A: -6.004
B: 2.439
C: 3.743
D: 2.999

structure: CN1CCCC(c2cccc(CCC(=O)NCC3(C)COC3)n2)C1 (stereo not shown)
A: 1.453
C: 3.333
D: 0.6134

structure: Cc1cc(C)c2c(N(C)CC3CCOC3)ncnc2n1 (stereo not shown)
A: 6.754
B: -1.696
C: 0
D: 3.26

structure: CC(C)[C@H](NC(=O)NC1CCS(=O)(=O)C1)C(=O)NCc1ccc(Cl)cc1 (stereo partly shown)
A: 1.01
B: 1.19
C: 0.5848
D: -2.109

structure: CC(C)C(=O)N1CCc2onc(C(=O)NCCN(C)C)c2C1
A: 2.326
B: -5.004
C: 0
D: 7.424

structure: CCC(=O)Nc1cccc(C(=O)NCCC2=CSC3=NCCCN23)c1
A: -3.457
B: -5.638
C: 9.453
D: 5.286

structure: CCN(C)S(=O)(=O)N(CC)Cc1cccc(-c2ccncc2)c1
A: 16.38
B: 0
C: 3.279
D: 1.164

structure: CCC(CN1CCCC1)n1cncc1-c1cnn(-c2ccc(F)cc2)c1 (stereo not shown)
A: 6.053
B: -4.373
C: 11.3
D: 1.474

structure: COc1cccc2c(=O)n(CCN3CCNCC3)cnc12
A: -11.9
B: -1.638
C: 7.182
D: 1.82

structure: Cc1nc(CN2CCN(C(=O)NC(C)Cn3ccnc3)CC2)cs1 (stereo not shown)
A: -1.141
B: -1.444
C: 4.734
D: 2.49

structure: CCCNC(=O)CC1OCCc2ccsc21 (stereo not shown)
A: 0.1965
B: 4.461
C: 13.79
D: 8.725

structure: Cc1ccc(CN2CC[C@H]3[C@H]2CC(=O)N3c2cccnc2)o1
A: -2.439
B: 11.18
C: 2.941
D: -1.646

structure: Cc1ccc([C@@H]2CN(C(=O)c3ccc[nH]3)C[C@H]2NC(=O)C2CC2)cc1
A: 1.316
B: -1.253
C: 9.091
D: -5.318

structure: Cn1ccnc1CC1CCCN(C(=O)Nc2cccn(C)c2=O)C1 (stereo not shown)
A: 6.418
B: -3.565
C: -32.62
D: 10.95

structure: Cc1ccc(-n2nnc(C(=O)NCCS(N)(=O)=O)c2C2CC2)cc1
A: 6.349
B: -2.414
C: -1.724
D: 6.119

structure: COC(=O)C(C)(C)S(=O)(=O)c1ccc(Br)cc1
A: 7.143
B: -2.786
C: 3.867
D: 4.15

structure: CC(C)(C)C(=O)NCCCc1nc2ccccc2[nH]1
A: 1.587
B: -4.701
C: 1.724
D: 6.553

structure: CC(C)c1nc(CN2CCN(C(=O)Cc3ccccc3Cl)CC2)no1
A: -6.821
B: 1.508
C: 3.509
D: 3.289

structure: Cc1nc(CN2CCN(C(=O)c3sccc3C3CC3)CC2)cs1
A: 0.2564
B: -1.329
C: -3.396
D: 1.04

structure: c1cc(-c2noc([C@@H]3CCCN3C3CCC3)n2)cc(N2CCCC2)n1
A: 0.5894
B: -1.602
C: 1.493
D: 4.433

structure: Cc1ccc(C(=O)N(C)CC(=O)NCC(F)(F)F)cn1
A: 3.03
B: 1.935
C: 12.12
D: 6.805

structure: CC(C)CN1CCC(C(=O)NCCNC(=O)c2ccco2)CC1
A: -4.516
B: -5.21
C: 7.389
D: 10.48

structure: Cc1cc(C)n(CC2CN(Cc3nnc(C)o3)CCO2)n1 (stereo not shown)
A: 0.7673
B: -4.056
C: 5.294
D: 1.561

structure: Cc1cccc(NCc2nn(C)c(=O)[nH]2)c1
A: 1.088
B: -4.04
C: 1.948
D: 0.6494

structure: CC(C)N1CC(C(=O)N2CCc3c(nc(CC4CC4)[nH]c3=O)C2)CC1=O (stereo not shown)
A: 2.2
B: 0
C: 4.372
D: -1.164

structure: CC(NC(=O)CCn1cccn1)c1ccc2c(c1)OCCO2 (stereo not shown)
A: 8.387
B: 18.4
C: 3.448
D: -1.826

structure: O=C(CN1CCOCC1)Nc1cc(C(F)(F)F)ccc1-n1cccc1
A: -5.063
B: -6.147
C: 10.42
D: 2.937

structure: Cc1nn(C)c(N(C)C)c1CNCCOc1ccc2c(c1)OCO2
A: 4.092
B: 0.936
C: 5.882
D: 1.734

structure: CCc1cnc2c(c1Nc1cccc(OC)c1)c(=O)n(C)c(=O)n2C
A: -0.6017
B: 1.614
C: 10.55
D: 2.175

The first 2 entries again:

For COc1ccc2c(c1)NC(=O)C2OC(=O)CC(C)(C)C (stereo not shown) the result was A: -11.28%; B: 3.229%; C: 15%; D: 7.007%.
For CS(=O)(=O)C1CCN(S(=O)(=O)c2ccc(F)c(F)c2)C1 (stereo not shown) the result was A: 1.564%; B: 3.962%; C: 5.528%; D: 6.315%.

The values are deposited in ChEMBL (CHEMBL3988442, “University of Dundee, Small-Polar-MMV Screening Library” (2021)).